PubChem BioAssay AID504834 (National Center for Advancing Translational Sciences (NCATS), 2011)
The whole screen tested about 320,000 compounds, of which about 22,000 (6.9%) were called active. The inconclusive results got no clear call from the source; some entries with a clear call stand among them for comparison. Calls come from the whole dose curve; as a rule, active = well fitted inhibition curve with a large enough effect; inconclusive = small, poorly fitted or top-dose-only effect, or another doubt; inactive = no such curve, though single readings can be large or run the other way. Where the call is inconclusive, the potency comes from a doubtful curve fit.

Assay: Primary qHTS for delayed death inhibitors of the malarial parasite plastid, 96 hour incubation
Conditions: P. falciparum luciferase reporter growth; series mostly up to 28.7 µM; activity change, negative = inhibition: at the top concentration
In short: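 P. falciparum expressing integrated firefly luciferase, in erythrocytes at 2% hematocrit, 0.05% parasitemia, incubated with compounds 96 h at 37 C, 5% CO2. Growth inhibition read as loss of luminescence; two-generation exposure targets delayed-death apicoplast inhibitors.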
% is set by controls: 0 for no effect and ±100 for the full control effect; potency is the fitted concentration of half-maximal effect.

| SMILES | Potency | activity change, negative = inhibition |
| --- | --- | --- |
| COc1cc(Cl)c(C)cc1NC(=O)c1cc(S(=O)(=O)N(C)C)ccc1N1CCCC1 | active: 2.33 µM |  |
| Cc1nc2c(c(=O)c3ccccc3n2C)c(=O)n1-c1ccc(F)cc1 | inconclusive: 16.5 µM [inhibitor, partial curve, poor fit] |  |
| CC(=O)Nc1ccc(S(=O)(=O)NC2CCSc3ccccc32)cc1 (centres undefined) | inconclusive: 11.7 µM [inhibitor, single point] |  |
| COc1ccc(-n2c(=S)[nH]c3cc(C(=O)N4CCN(c5ccccc5)CC4)ccc3c2=O)c(OC)c1 | inconclusive: 11.7 µM [inhibitor, single point] |  |
| Cc1ccccc1CNC(=O)c1ccccc1NS(C)(=O)=O | inconclusive: 9.28 µM [inhibitor, partial curve, poor fit] |  |
| CN(CC(=O)NC(=O)NCc1ccccc1)Cc1cccc(Cl)c1Cl |  | inactive: 36.6% |
| CN1CCN(C(=S)Nc2ccc(Cl)cc2)CC1 |  | inactive: 16.4% |
| CSc1ccccc1OCc1cc(C(=O)N(C)Cc2c(C)n[nH]c2C)no1 | inconclusive: 10.4 µM [inhibitor, single point] |  |
| COc1nc(Nc2cccc(C(F)(F)F)c2)nc(OC)n1 | inconclusive: 2.62 µM [inhibitor, full curve, poor fit] |  |
| O=C(COc1ccc2c(C(F)(F)F)cc(=O)oc2c1)NCc1cccs1 |  | inactive: 23.9% |
| O=C1c2[nH]nc(-c3ccccc3O)c2C(c2ccccc2)N1Cc1ccco1 (centres undefined) | inconclusive: 10.4 µM [inhibitor, single point] |  |
| O=C(NC(=S)Nc1nc(-c2ccccc2)cs1)c1cccnc1 | active: 11.7 µM |  |
| CCCN(CC(=O)Nc1ccc(C)cc1Br)CC(=O)Nc1ccc(F)c(F)c1F | inconclusive: 11.7 µM [inhibitor, single point] |  |
| COc1ccc(-c2cc(C(F)(F)F)nc(SCC(=O)Nc3sc4c(c3C#N)CCC4)n2)cc1 | active: 1.65 µM |  |
| COc1ccccc1NC(=S)N1CCN(C/C=C/c2ccccc2)CC1 | inconclusive: 11.7 µM [inhibitor, single point] |  |
| CC1(c2ccc(Cl)cc2Cl)OCC(Cn2ccnc2)O1 (centres undefined) | inconclusive: 11.7 µM [inhibitor, single point] |  |
| CCN1CCN(Cc2nc3c(c(=O)n(C)c(=O)n3C)n2Cc2cccc3ccccc23)CC1 |  | inactive: -21.7% |
| N#Cc1ccc(Oc2ccc(C(F)(F)F)cc2NC(=O)c2ccc(F)cc2)cc1 | inconclusive: 18.5 µM [inhibitor, single point] |  |
| Cc1cc(C)cc(NC(=O)c2cccc(N3C(=O)C4C5C=CC(C5)C4C3=O)c2)c1 (centres undefined) | active: 4.65 µM |  |
| Cn1cccc1CC(=O)N/N=C/c1cccc([N+](=O)[O-])c1 | inconclusive: 11.7 µM [inhibitor, single point] |  |
| COc1ccc(Nc2nc(NC(C)(C)C)nc(N3CCOCC3)n2)c(OC)c1 |  | inactive: 20.9% |
| CN(C(=O)CSc1nc2ccc([N+](=O)[O-])cc2s1)C1CCS(=O)(=O)C1 (centres undefined) | active: 9.28 µM |  |
| c1cncc(-c2noc(-c3ccco3)n2)c1 | inconclusive: 5.86 µM [inhibitor, partial curve, poor fit] |  |

| SMILES | Potency | activity change, negative = inhibition |
| --- | --- | --- |
| CCn1c(SCC(=O)c2cc(C)n(-c3ccc(C(=O)OC)cc3)c2C)nnc1-c1cccnc1 | inconclusive: 9.28 µM [inhibitor, partial curve, poor fit] |  |
| NC(=O)c1cccc(-c2cc(Nc3ccc(OC(F)(F)F)cc3)ncn2)c1 | active: 14.7 µM |  |
| O=C(NCC1CCCO1)C1CCN(S(=O)(=O)c2cccnc2)CC1 (centres undefined) | inconclusive: 2.94 µM [inhibitor, full curve] |  |
| Cn1c(N)c(C(=O)CSc2nnc(-c3ccccc3F)n2N)c(=O)n(C)c1=O | active: 10.4 µM |  |
| O=C(CSc1ncccc1-c1nc2ccccc2[nH]1)NC1CC1 |  | inactive: 7.58% |
| COc1ccc(NCc2nnc(SCC(=O)NCc3ccco3)n2-c2ccccc2OC)cc1 | inconclusive: 4.15 µM [inhibitor, partial curve, poor fit] |  |
| COc1ccc(/C=C/c2c([N+](=O)[O-])c(=O)n(C)c(=O)n2C)cc1 | active: 13.1 µM |  |
| COc1ccc(CCC(=O)OCC(=O)Nc2ccc(OC)c(OC)c2)cc1OC |  | inactive: 18.7% |
| CC(C(=O)O)n1c(-c2ccn[nH]2)n[nH]c1=S (centres undefined) |  | inactive: 19.8% |
| Cc1nc2ccccn2c1-c1csc(Nc2ccc(C(=O)O)cc2)n1 | inconclusive: 13.1 µM [inhibitor, single point] |  |
| COc1cc(C(C)=O)ccc1OCC(O)CN1CCN(c2ccccc2)CC1 (centres undefined) | inconclusive: 18.5 µM [inhibitor, single point] |  |
| N#Cc1ccc(OCC(=O)N2CCN(S(=O)(=O)c3ccc(Cl)s3)CC2)cc1 | inconclusive: 11.7 µM [inhibitor, single point] |  |
| O=C(c1cc(COc2ccc3ncccc3c2)on1)N1CCC[C@H]1CO | inconclusive: 13.1 µM [inhibitor, single point] |  |
| Oc1c(Br)cc(/C=N/n2c(-c3ccccc3)n[nH]c2=S)c(Br)c1O | inconclusive: 18.5 µM [inhibitor, single point] |  |
| CCc1nnc(NC(=O)CCN2C(=O)/C(=C/c3cc(OC)c(OC)c(OC)c3)SC2=S)s1 |  | inactive: 27.1% |
| CC1(C)CC(=O)C=C(NNC(=O)c2ccccc2)C1 | inconclusive: 13.1 µM [inhibitor, partial curve, poor fit] |  |
| Cc1ccc(CCN2CC(C(=O)NCCCN3CCCCC3)CC2=O)cc1 (centres undefined) | active: 7.38 µM |  |
| CC(=O)OC(C(=O)NC1CCCCC1)c1ccncc1 (centres undefined) | inconclusive: 18.5 µM [inhibitor, single point] |  |
| O=C1C=C(O)c2cccc3cccc1c23 | inconclusive: 2.94 µM [inhibitor, single point] |  |
| CCC(C(=O)NCc1ccccn1)n1c2ccccc2c2nc(=O)cc(C)n21 (centres undefined) |  | inactive: 0.645% |
| CC1=C(C(=O)OCc2ccccc2)C(c2ccc(Cl)cc2Cl)NC(=O)N1CCCCCC(=O)O (centres undefined) | inconclusive: 11.7 µM [inhibitor, single point] |  |
| COC(=O)C1=C(C)N(C)C(=O)NC1c1cccc2ccccc12 (centres undefined) | inconclusive: 18.5 µM [inhibitor, single point] |  |
| Cc1ccc(C(=O)N/C(=C/c2ccccc2)C(=O)NCc2ccncc2)cc1 | inconclusive: 0.0185 µM [inhibitor, full curve, poor fit] |  |

An excerpt from above in order of length of the SMILES, smallest number first.

| SMILES | Potency | activity change, negative = inhibition |
| --- | --- | --- |
| CC1(C)CC(=O)C=C(NNC(=O)c2ccccc2)C1 | inconclusive: 13.1 µM [inhibitor, partial curve, poor fit] |  |
| Cc1nc2ccccn2c1-c1csc(Nc2ccc(C(=O)O)cc2)n1 | inconclusive: 13.1 µM [inhibitor, single point] |  |
| CC1=C(C(=O)OCc2ccccc2)C(c2ccc(Cl)cc2Cl)NC(=O)N1CCCCCC(=O)O (centres undefined) | inconclusive: 11.7 µM [inhibitor, single point] |  |

Shown tab-delimited: 2 of the compounds above.
SMILES	Potency	activity change, negative = inhibition
COc1ccc(-c2cc(C(F)(F)F)nc(SCC(=O)Nc3sc4c(c3C#N)CCC4)n2)cc1	active: 1.65 µM	
O=C(c1cc(COc2ccc3ncccc3c2)on1)N1CCC[C@H]1CO	inconclusive: 13.1 µM [inhibitor, single point]	

(list continues)

| SMILES | Potency | activity change, negative = inhibition |
| --- | --- | --- |
| CC(C)NC(=O)Cn1c(=O)n(CC(=O)N2CCCCC2)c(=O)c2sccc21 |  | inactive: 30% |
| Cc1ccccc1NS(=O)(=O)c1cc(C(=O)N2CCc3ccccc3C2)ccc1C | inconclusive: 13.1 µM [inhibitor, single point] |  |
| Cc1cccc(/C=C2/C(=O)/C(=C/c3ccccc3C)C3CCC2N3C)c1 (centres undefined) | inconclusive: 1.17 µM [inhibitor, partial curve, poor fit] |  |
| CCCc1cc(=O)oc2c(C)c(OCC(=O)N3CCC(C(N)=O)CC3)ccc12 | inconclusive: 10.4 µM [inhibitor, single point] |  |
| COc1ccc(OC)c(/C=N/N2CCN(c3ccc(Cl)cc3)CC2)c1 |  | inactive: -2.2% |
| Cc1ccc(Nc2ncc3c(n2)CC(c2ccco2)CC3=O)c(C)c1 (centres undefined) | inconclusive: 18.5 µM [inhibitor, single point] |  |
| CN(Cc1ccccc1)S(=O)(=O)c1ccc(NS(=O)(=O)Cc2ccccc2)cc1 | inconclusive: 20.8 µM [inhibitor, partial curve, poor fit] |  |
| CCN(Cc1cc(=O)n2cc(Cl)c(C)c(Cl)c2n1)Cc1nc2ccccc2c(=O)[nH]1 | inconclusive: 18.5 µM [inhibitor, single point] |  |
| COc1cc(CN2CCC(C(=O)N3CCN(c4ccccc4F)CC3)CC2)cc(OC)c1OC | inconclusive: 0.738 µM [inhibitor, full curve, poor fit] |  |
| COc1ccc(C(=O)Nc2c(N)nc(SCC(=O)Nc3ccc(NC(C)=O)cc3)[nH]c2=O)cc1OC | active: 10.4 µM |  |
| CC(=O)C1=C(c2ccc(Br)cc2)C(=O)c2ccccc2C1=O | inconclusive: 7.38 µM [inhibitor, partial curve, poor fit] |  |
| CCCc1cc2c(=O)c(-c3nc4ccccc4s3)c(COCC(=O)O)oc2cc1O |  | inactive: 15.4% |
| O=C1CN(C(=O)COC(=O)COc2ccc3c(c2)CCC3)c2ccccc2N1 | inconclusive: 18.5 µM [inhibitor, single point] |  |
| CCN(c1ccccc1)S(=O)(=O)c1ccc(OC)c(NC(=O)c2cc(Cl)ccn2)c1 | active: 6.57 µM |  |
| Oc1ccccc1C1Nc2cccc3cccc(c23)N1 |  | inactive: -7.23% |
| CC(=O)c1sc(-c2ccc(Cl)cc2)cc1N | inconclusive: 20.8 µM [inhibitor, partial curve, poor fit] |  |
| Cc1ccc(S(=O)(=O)C(CCC(=O)N2CCOCC2)S(=O)(=O)c2ccc(C)cc2)cc1 | inconclusive: 2.94 µM [inhibitor, full curve, poor fit] |  |
| CCC(C(=O)NCCc1c[nH]c2ccc(C)cc12)c1ccccc1 (centres undefined) | active: 14.7 µM |  |
| Cc1cc(OCC(=O)N2CCC(O)CC2)c2c(C)cc(=O)oc2c1 | inconclusive: 11.7 µM [inhibitor, single point] |  |
| COc1ccc(C(=O)O/N=C(\N)c2ccncc2)cc1OC | inconclusive: 10.4 µM [inhibitor, single point] |  |
| COc1ccccc1NC(=O)C(=O)NCCC1CCCCN1S(=O)(=O)c1ccc(F)cc1 (centres undefined) | inconclusive: 13.1 µM [inhibitor, single point] |  |
| COC(=O)c1ccccc1SCC(=O)Nc1ccc(N2CCOCC2)cc1 |  | inactive: 91.2% |
| COCCN(C(=O)CSc1n[nH]c(-c2ccccc2)n1)c1c(N)n(CC(C)C)c(=O)[nH]c1=O |  | inactive: 0.655% |
